# In the supplement of paper PMC8728848:
# Some of the results follow.
# B1: EULS2 M3 (Oryza sativa) (protein)
# chain: MVYCRANPNYAMTARNGAVVLAPANPKDEYQHWIKDMRWSTSIKDEEGYPAFALVNKATGQAIKHSLGQSHPVRLVPYNPEVMDESVLWTESRDVGNGFRCIRMVNNIYLNFDAFHGDKYHGGVRDGTDIVLWKLCEGDSLRWKIQPYYILEQKLISEEDLNSAVDHHHHHH
# Assays:
# Experiment in all cases: glycan array binding signal (z-score within array); higher = stronger binding
# Details in all cases: glycan notation: IUPAC condensed, linker removed
# [1] = biological target: Gal(a1-3)Gal(b1-4)GlcNAc(b1-2)Man
# In short: (§1)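 Glycan array data came from 3228 arrays in the Consortium for Functional Glycomics database, and only arrays with an available protein sequence were kept. Glycan names were put into IUPAC-condensed notation, and columns mapping to the same glycan were averaged. The binding signal is a within-array Z-score, averaged across arrays of one protein sequence run at different concentrations or buffers and across linkers. A negative Z-score can be read as non-binding.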
# [2] = biological target: Gal(a1-3)Gal(b1-4)GlcNAc(b1-2)Man(a1-3)[Gal(a1-3)Gal(b1-4)GlcNAc(b1-2)Man(a1-6)]Man(b1-4)GlcNAc(b1-4)GlcNAc
# In short: as §1
# [3] = biological target: Gal(a1-3)Gal(b1-4)GlcNAc(b1-3)GalNAc
# In short: as §1
# [4] = biological target: Gal(a1-3)Gal(b1-4)GlcNAc(b1-6)GalNAc
# In short: as §1
# [5] = biological target: Gal(a1-3)Gal(b1-4)[Fuc(a1-3)]GlcNAc
# In short: as §1
# [6] = biological target: Gal(a1-3)Gal(b1-4)[Fuc(a1-3)]GlcNAc(b1-2)Man(a1-3)[Gal(a1-3)Gal(b1-4)[Fuc(a1-3)]GlcNAc(b1-2)Man(a1-6)]Man(b1-4)GlcNAc(b1-4)GlcNAc
# In short: as §1
# [7] = biological target: Gal(a1-3)GalNAc
# In short: as §1
# [8] = biological target: Gal(a1-3)[Gal(a1-4)]Gal(b1-4)GlcNAc
# In short: as §1
# [9] = biological target: Gal(a1-4)Gal(b1-3)GlcNAc(b1-2)Man(a1-3)[Gal(a1-4)Gal(b1-3)GlcNAc(b1-2)Man(a1-6)]Man(b1-4)GlcNAc(b1-4)GlcNAc
# In short: as §1
# [10] = biological target: Gal(a1-4)Gal(b1-4)Glc
# In short: as §1
# [11] = biological target: Gal(a1-4)Gal(b1-4)GlcNAc
# In short: as §1
# [12] = biological target: Gal(a1-4)Gal(b1-4)GlcNAc(b1-2)Man(a1-3)[Gal(a1-4)Gal(b1-4)GlcNAc(b1-2)Man(a1-6)]Man(b1-4)GlcNAc(b1-4)GlcNAc
# In short: as §1
# [13] = biological target: Gal(a1-4)Gal(b1-4)GlcNAc(b1-3)Gal(b1-4)Glc
# In short: as §1
# [14] = biological target: Gal(a1-4)GlcNAc
# In short: as §1
# [15] = biological target: Gal(a1-6)Glc
# In short: as §1
# [16] = biological target: Gal(b1-2)Gal
# In short: as §1
# [17] = biological target: Gal(b1-3)Gal
# In short: as §1
# [18] = biological target: Gal(b1-3)Gal(b1-4)GlcNAc
# In short: as §1
# [19] = biological target: Gal(b1-3)GalNAc
# In short: as §1
# [20] = biological target: Gal(b1-3)GalNAc(a1-3)[Fuc(a1-2)]Gal(b1-4)Glc
# In short: as §1
# [21] = biological target: Gal(b1-3)GalNAc(a1-3)[Fuc(a1-2)]Gal(b1-4)GlcNAc
# In short: as §1
# [22] = biological target: Gal(b1-3)GalNAc(b1-3)Gal
# In short: as §1
# [23] = biological target: Gal(b1-3)GalNAc(b1-3)Gal(a1-4)Gal(b1-4)Glc
# In short: as §1
# [24] = biological target: Gal(b1-3)GalNAc(b1-4)Gal(b1-4)Glc
# In short: as §1
# [25] = biological target: Gal(b1-3)GalNAc(b1-4)[Neu5Ac(a2-3)]Gal(b1-4)Glc
# In short: as §1
# [26] = biological target: Gal(b1-3)GlcNAc
# In short: as §1
# [27] = biological target: Gal(b1-3)GlcNAc(a1-3)Gal(b1-4)GlcNAc
# In short: as §1
# [28] = biological target: Gal(b1-3)GlcNAc(a1-6)Gal(b1-4)GlcNAc
# In short: as §1
# [29] = biological target: Gal(b1-3)GlcNAc(b1-2)Man
# In short: as §1
# [30] = biological target: Gal(b1-3)GlcNAc(b1-2)Man(a1-3)[Gal(b1-3)GlcNAc(b1-2)Man(a1-6)]Man(b1-4)GlcNAc(b1-4)GlcNAc
# In short: as §1
# [31] = biological target: Gal(b1-3)GlcNAc(b1-2)Man(a1-3)[Gal(b1-3)GlcNAc(b1-2)Man(a1-6)]Man(b1-4)GlcNAc(b1-4)[Fuc(a1-6)]GlcNAc
# In short: as §1
# [32] = biological target: Gal(b1-3)GlcNAc(b1-2)Man(a1-3)[GlcNAc(b1-4)][Gal(b1-3)GlcNAc(b1-2)Man(a1-6)]Man(b1-4)GlcNAc(b1-4)GlcNAc
# In short: as §1
# [33] = biological target: Gal(b1-3)GlcNAc(b1-2)[Gal(b1-3)GlcNAc(b1-6)]Man(a1-6)[Gal(b1-3)GlcNAc(b1-2)Man(a1-3)]Man(b1-4)GlcNAc(b1-4)GlcNAc
# In short: as §1
# [34] = biological target: Gal(b1-3)GlcNAc(b1-3)Gal(b1-3)GlcNAc
# In short: as §1
# [35] = biological target: Gal(b1-3)GlcNAc(b1-3)Gal(b1-4)Glc
# In short: as §1
# [36] = biological target: Gal(b1-3)GlcNAc(b1-3)Gal(b1-4)GlcNAc
# In short: as §1
# [37] = biological target: Gal(b1-3)GlcNAc(b1-3)Gal(b1-4)GlcNAc(b1-2)Man(a1-3)[Gal(b1-3)GlcNAc(b1-3)Gal(b1-4)GlcNAc(b1-2)Man(a1-6)]Man(b1-4)GlcNAc(b1-4)GlcNAc
# In short: as §1
# [38] = biological target: Gal(b1-3)GlcNAc(b1-3)Gal(b1-4)GlcNAc(b1-2)[Gal(b1-3)GlcNAc(b1-3)Gal(b1-4)GlcNAc(b1-6)]Man(a1-6)[Gal(b1-3)GlcNAc(b1-3)Gal(b1-4)GlcNAc(b1-2)Man(a1-3)]Man(b1-4)GlcNAc(b1-4)[Fuc(a1-6)]GlcNAc
# In short: as §1
# [39] = biological target: Gal(b1-3)GlcNAc(b1-3)Gal(b1-4)GlcNAc(b1-3)Gal(b1-4)GlcNAc(b1-2)[Gal(b1-3)GlcNAc(b1-3)Gal(b1-4)GlcNAc(b1-3)Gal(b1-4)GlcNAc(b1-6)]Man(a1-6)[Gal(b1-3)GlcNAc(b1-3)Gal(b1-4)GlcNAc(b1-3)Gal(b1-4)GlcNAc(b1-2)Man(a1-3)]Man(b1-4)GlcNAc(b1-4)[Fuc(a1-6)]GlcNAc
# In short: as §1
# [40] = biological target: Gal(b1-3)GlcNAc(b1-3)Gal(b1-4)GlcNAc(b1-6)[Gal(b1-3)GlcNAc(b1-3)]Gal(b1-4)Glc
# In short: as §1
# [41] = biological target: Gal(b1-3)GlcNAc(b1-3)Gal(b1-4)[Fuc(a1-3)]GlcNAc
# In short: as §1
# [42] = biological target: Gal(b1-3)GlcNAc(b1-3)Gal(b1-4)[Fuc(a1-3)]GlcNAc(b1-6)[Gal(b1-3)GlcNAc(b1-3)]Gal(b1-4)Glc
# In short: as §1
# [43] = biological target: Gal(b1-3)GlcNAc(b1-3)GalNAc
# In short: as §1
# [44] = biological target: Gal(b1-3)GlcNAc(b1-6)Gal(b1-4)GlcNAc
# In short: as §1
# [45] = biological target: Gal(b1-3)GlcNAc(b1-6)GalNAc
# In short: as §1
binder,measurement,setting,value
B1,glycan array binding signal (z-score),[1],-0.417
same,glycan array binding signal (z-score),[2],0.222
same,glycan array binding signal (z-score),[3],-0.198
same,glycan array binding signal (z-score),[4],-0.929
same,glycan array binding signal (z-score),[5],0.123
same,glycan array binding signal (z-score),[6],-0.329
same,glycan array binding signal (z-score),[7],-0.069
same,glycan array binding signal (z-score),[8],0.564
same,glycan array binding signal (z-score),[9],0.072
same,glycan array binding signal (z-score),[10],-0.501
same,glycan array binding signal (z-score),[11],-0.442
same,glycan array binding signal (z-score),[12],0.307
same,glycan array binding signal (z-score),[13],-0.361
same,glycan array binding signal (z-score),[14],-0.318
same,glycan array binding signal (z-score),[15],-0.431
same,glycan array binding signal (z-score),[16],-0.24
same,glycan array binding signal (z-score),[17],-0.117
same,glycan array binding signal (z-score),[18],0.894
same,glycan array binding signal (z-score),[19],0.239
same,glycan array binding signal (z-score),[20],-0.255
same,glycan array binding signal (z-score),[21],-0.821
same,glycan array binding signal (z-score),[22],-0.775
same,glycan array binding signal (z-score),[23],-0.242
same,glycan array binding signal (z-score),[24],-0.382
same,glycan array binding signal (z-score),[25],-0.461
same,glycan array binding signal (z-score),[26],0.047
same,glycan array binding signal (z-score),[27],2.02
same,glycan array binding signal (z-score),[28],-0.654
same,glycan array binding signal (z-score),[29],-0.032
same,glycan array binding signal (z-score),[30],-0.258
same,glycan array binding signal (z-score),[31],-0.658
same,glycan array binding signal (z-score),[32],0.099
same,glycan array binding signal (z-score),[33],-0.346
same,glycan array binding signal (z-score),[34],-0.4
same,glycan array binding signal (z-score),[35],-0.014
same,glycan array binding signal (z-score),[36],-0.093
same,glycan array binding signal (z-score),[37],0.43
same,glycan array binding signal (z-score),[38],1.28
same,glycan array binding signal (z-score),[39],1.66
same,glycan array binding signal (z-score),[40],-0.565
same,glycan array binding signal (z-score),[41],-0.065
same,glycan array binding signal (z-score),[42],-0.476
same,glycan array binding signal (z-score),[43],0.298
same,glycan array binding signal (z-score),[44],-0.328
same,glycan array binding signal (z-score),[45],-0.373

# Part of the list above, bar-delimited.
binder | measurement | setting | value
B1 | glycan array binding signal (z-score) | [23] | -0.242
same | glycan array binding signal (z-score) | [24] | -0.382
